Measured values: the supplement of paper PMC10849652
This is one part of the list.

The chains behind the UniProt entries cited, without tags or fusion partners. Where a name states a change or a piece, a line headed by the entry shows the natural chain unless it says otherwise.
UniProt Q9NXV6: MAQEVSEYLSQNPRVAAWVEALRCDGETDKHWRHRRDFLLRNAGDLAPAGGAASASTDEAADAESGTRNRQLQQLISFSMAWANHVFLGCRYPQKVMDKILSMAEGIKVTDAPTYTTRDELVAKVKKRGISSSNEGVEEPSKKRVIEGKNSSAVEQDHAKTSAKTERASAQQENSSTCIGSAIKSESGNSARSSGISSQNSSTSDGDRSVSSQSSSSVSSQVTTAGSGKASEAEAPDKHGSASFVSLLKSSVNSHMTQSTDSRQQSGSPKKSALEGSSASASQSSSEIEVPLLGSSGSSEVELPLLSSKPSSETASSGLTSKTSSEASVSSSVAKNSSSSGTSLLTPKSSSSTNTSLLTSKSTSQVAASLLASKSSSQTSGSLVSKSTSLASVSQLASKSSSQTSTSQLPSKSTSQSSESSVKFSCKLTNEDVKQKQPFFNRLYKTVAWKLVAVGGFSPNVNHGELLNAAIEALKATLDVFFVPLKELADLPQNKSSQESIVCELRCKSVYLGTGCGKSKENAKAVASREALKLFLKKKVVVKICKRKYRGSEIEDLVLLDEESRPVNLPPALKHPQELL
UniProt Q14004, whole entry, looked up: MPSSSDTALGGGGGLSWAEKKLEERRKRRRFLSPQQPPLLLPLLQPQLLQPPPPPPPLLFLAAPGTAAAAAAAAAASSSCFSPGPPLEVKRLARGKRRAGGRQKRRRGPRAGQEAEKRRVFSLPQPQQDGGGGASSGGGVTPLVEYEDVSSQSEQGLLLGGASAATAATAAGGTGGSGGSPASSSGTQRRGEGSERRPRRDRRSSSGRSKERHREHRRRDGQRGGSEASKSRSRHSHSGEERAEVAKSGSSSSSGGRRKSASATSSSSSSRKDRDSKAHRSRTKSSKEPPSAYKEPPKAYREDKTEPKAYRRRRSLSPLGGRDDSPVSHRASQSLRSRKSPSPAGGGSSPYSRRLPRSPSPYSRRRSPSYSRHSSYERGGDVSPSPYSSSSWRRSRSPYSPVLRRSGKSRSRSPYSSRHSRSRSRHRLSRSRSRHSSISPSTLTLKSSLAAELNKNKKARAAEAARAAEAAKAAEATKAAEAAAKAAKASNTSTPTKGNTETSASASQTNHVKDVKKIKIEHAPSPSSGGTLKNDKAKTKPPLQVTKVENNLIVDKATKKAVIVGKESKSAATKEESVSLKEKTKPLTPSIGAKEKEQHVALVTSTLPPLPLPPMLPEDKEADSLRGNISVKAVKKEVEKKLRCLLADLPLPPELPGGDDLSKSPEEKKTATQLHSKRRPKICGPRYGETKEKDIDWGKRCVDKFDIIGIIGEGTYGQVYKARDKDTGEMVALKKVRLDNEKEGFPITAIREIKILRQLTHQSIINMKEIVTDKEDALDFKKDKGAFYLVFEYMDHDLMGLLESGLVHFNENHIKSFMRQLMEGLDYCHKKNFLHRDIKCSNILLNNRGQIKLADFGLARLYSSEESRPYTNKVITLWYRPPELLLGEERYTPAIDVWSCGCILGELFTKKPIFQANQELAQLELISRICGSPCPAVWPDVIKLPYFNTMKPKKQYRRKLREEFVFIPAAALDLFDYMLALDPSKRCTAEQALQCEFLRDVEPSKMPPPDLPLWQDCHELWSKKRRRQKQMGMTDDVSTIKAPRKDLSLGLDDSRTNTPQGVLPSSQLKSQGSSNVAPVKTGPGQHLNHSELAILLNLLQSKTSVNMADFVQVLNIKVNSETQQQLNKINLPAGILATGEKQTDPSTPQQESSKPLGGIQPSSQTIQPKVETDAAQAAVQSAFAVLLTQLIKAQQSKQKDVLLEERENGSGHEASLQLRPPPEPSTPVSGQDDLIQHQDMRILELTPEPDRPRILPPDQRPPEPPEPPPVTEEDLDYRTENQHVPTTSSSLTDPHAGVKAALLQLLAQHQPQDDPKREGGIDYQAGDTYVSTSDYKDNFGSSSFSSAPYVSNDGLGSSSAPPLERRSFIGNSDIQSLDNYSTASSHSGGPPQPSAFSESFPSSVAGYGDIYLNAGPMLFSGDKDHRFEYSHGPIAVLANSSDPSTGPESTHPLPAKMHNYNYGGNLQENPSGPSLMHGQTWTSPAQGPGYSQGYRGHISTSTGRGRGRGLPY
UniProt Q66GS9: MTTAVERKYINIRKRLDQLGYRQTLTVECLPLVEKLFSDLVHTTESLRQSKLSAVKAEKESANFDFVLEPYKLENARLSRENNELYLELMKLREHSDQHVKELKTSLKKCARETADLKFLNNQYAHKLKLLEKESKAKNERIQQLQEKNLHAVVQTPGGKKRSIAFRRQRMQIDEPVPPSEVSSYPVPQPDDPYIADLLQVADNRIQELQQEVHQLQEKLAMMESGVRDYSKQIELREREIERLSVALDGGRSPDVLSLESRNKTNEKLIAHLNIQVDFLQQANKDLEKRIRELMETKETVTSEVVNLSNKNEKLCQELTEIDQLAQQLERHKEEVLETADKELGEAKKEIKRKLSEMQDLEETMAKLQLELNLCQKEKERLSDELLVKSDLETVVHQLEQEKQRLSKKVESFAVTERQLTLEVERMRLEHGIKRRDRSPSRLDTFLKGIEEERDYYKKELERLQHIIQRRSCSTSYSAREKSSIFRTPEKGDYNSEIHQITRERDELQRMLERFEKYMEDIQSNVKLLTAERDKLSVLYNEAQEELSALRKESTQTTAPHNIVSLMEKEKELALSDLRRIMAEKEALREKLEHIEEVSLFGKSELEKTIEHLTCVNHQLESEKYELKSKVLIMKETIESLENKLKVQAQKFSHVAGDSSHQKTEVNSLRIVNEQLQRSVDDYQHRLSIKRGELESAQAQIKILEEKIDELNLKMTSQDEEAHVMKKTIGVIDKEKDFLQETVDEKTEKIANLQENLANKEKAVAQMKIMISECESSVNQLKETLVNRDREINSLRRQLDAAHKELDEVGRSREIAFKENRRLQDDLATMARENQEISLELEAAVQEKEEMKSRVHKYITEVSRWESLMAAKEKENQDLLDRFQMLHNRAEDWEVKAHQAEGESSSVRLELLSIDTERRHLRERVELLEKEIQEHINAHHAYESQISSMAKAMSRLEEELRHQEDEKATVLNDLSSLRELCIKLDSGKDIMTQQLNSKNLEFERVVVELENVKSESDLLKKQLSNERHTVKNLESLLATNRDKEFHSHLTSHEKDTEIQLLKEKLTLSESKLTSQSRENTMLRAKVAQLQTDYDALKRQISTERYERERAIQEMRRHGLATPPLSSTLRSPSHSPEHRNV
UniProt Q9H3R5: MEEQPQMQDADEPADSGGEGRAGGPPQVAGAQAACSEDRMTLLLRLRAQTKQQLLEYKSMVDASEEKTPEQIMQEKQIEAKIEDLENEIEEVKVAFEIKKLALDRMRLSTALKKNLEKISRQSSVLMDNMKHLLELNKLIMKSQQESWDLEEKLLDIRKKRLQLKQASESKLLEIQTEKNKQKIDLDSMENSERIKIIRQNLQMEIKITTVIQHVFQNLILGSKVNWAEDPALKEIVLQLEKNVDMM
UniProt Q8TEP8: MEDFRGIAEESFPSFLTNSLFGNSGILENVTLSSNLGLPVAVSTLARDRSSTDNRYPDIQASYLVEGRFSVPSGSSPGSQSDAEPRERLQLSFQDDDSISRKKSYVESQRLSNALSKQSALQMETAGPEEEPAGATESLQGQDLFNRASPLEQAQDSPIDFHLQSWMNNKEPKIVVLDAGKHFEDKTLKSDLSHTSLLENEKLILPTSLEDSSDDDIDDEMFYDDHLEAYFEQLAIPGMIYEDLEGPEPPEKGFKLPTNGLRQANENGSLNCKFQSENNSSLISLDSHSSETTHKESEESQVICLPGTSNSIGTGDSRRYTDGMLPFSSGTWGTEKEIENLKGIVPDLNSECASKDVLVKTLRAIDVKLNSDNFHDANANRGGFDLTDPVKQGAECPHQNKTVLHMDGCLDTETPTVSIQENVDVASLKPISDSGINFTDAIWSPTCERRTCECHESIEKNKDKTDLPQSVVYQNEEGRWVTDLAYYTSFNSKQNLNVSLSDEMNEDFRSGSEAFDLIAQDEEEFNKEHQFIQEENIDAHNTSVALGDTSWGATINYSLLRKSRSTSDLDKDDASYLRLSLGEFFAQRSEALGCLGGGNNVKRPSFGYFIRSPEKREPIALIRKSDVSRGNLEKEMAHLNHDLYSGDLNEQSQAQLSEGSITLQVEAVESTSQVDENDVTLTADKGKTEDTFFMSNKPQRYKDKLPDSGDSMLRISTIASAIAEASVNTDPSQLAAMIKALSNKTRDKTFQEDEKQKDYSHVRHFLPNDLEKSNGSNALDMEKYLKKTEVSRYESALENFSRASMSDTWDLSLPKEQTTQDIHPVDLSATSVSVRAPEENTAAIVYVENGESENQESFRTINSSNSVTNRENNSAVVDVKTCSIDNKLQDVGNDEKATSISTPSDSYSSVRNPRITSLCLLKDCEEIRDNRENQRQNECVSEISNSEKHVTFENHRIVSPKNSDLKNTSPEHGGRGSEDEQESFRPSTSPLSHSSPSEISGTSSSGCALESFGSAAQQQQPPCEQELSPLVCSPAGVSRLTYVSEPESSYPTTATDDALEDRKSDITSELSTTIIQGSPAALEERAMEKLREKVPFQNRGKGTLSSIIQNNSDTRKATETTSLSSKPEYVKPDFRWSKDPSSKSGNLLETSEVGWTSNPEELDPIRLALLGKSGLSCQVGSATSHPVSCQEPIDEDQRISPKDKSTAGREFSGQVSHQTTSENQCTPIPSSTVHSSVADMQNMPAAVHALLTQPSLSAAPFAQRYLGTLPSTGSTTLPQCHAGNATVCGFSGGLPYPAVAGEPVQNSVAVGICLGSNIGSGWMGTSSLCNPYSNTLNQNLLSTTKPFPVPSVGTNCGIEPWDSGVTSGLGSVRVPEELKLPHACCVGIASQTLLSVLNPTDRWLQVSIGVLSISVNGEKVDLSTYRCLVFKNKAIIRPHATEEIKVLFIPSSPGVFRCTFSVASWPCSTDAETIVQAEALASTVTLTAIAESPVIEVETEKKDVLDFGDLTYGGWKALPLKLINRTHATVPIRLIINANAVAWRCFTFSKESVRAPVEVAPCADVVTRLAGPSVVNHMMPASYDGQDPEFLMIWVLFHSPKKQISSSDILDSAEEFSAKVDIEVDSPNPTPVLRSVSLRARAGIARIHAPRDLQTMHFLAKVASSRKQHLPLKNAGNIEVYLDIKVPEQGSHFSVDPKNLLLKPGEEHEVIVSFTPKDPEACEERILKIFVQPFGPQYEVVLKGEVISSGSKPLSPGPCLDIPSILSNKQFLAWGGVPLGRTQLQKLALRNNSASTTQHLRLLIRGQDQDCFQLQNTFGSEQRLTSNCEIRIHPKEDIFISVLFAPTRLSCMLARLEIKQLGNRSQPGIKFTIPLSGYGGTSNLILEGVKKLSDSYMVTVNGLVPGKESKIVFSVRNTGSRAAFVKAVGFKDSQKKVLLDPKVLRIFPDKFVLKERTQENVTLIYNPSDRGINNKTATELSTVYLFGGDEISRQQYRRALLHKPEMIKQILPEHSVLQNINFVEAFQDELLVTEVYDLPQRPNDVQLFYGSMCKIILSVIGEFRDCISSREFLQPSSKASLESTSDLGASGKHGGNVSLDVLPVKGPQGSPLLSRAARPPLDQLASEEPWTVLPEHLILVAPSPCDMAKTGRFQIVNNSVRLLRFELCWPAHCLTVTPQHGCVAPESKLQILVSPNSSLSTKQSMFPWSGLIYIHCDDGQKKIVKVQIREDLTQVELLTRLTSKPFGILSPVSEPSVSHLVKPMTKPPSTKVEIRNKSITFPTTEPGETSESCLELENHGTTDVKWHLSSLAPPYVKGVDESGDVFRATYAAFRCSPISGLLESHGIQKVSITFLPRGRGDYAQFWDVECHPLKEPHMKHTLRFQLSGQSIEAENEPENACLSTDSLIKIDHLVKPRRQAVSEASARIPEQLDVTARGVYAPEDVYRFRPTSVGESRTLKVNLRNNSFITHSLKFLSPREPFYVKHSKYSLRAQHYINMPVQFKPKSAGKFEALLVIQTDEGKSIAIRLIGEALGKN
UniProt P06493, whole entry, looked up: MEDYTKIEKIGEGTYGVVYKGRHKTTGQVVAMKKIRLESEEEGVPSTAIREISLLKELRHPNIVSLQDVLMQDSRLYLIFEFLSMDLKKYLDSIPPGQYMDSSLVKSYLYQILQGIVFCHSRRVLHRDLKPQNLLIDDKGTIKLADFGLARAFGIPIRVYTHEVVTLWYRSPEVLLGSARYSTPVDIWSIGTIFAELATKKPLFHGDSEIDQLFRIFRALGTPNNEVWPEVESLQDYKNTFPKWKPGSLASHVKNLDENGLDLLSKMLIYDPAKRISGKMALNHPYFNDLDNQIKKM
UniProt Q8WUX2: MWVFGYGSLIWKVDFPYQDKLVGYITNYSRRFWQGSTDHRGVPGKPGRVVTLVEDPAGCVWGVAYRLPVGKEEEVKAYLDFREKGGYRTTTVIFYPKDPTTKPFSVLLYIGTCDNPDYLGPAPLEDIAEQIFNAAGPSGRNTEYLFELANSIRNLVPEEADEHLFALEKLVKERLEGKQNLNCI

Tests used:
Experiment in all cases: log2 fold change, soluble protein after heating vs DMSO (PISA); higher = thermal stabilisation; K562 cells, 10 uM, 30 min; active = over 0.2 and 3.5 SD of the protein, either way, in both replicates (recomputed)
[1] = compound: CS(=O)(=O)c1ccc(-c2cnc(N)c(C(=O)Nc3ccccc3)n2)cc1
Outline: (§1)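 For each measurement, 10 μM compound was applied for 30 min to K562 cells at 2×10^6 cells/mL. Aliquots were heated for 3 min across 48°C-58°C, pooled, and extracted in PBS with 0.5% NP-40 at 4°C; the supernatant after 21,000xg for 90 min was soluble protein. This was quantified by TMTpro 16plex LC-MS/MS with channel sums equalised, and thermal stability was reported relative to control samples from duplicates, on a log2 fold-change scale.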

crizotinib = compound: C[C@@H](Oc1cc(-c2cnn(C3CCNCC3)c2)cnc1N)c1c(Cl)ccc(F)c1Cl [crizotinib]
Outline: as §1

[2] = compound: C[C@@H]1COCCN1C2=NC(=NC(=C2)C3(CC3)S(=O)(=O)C)C4=C5C=CNC5=CC=C4
Outline: as §1

[3] = compound: C[C@H](C1=CC=C(C=C1)C(=O)NC2=C3C=CNC3=NC=C2)N
Outline: as §1

gandotinib = compound: Cc1cc(Nc2cc(CN3CCOCC3)c3nc(C)c(Cc4ccc(Cl)cc4F)n3n2)n[nH]1 [gandotinib]
Outline: as §1

[4] = compound: Cc1cc(SCc2sc(-c3ccc(C(F)(F)F)cc3)nc2C)ccc1OCC(=O)O
Outline: as §1

doramapimod = compound: Cc1ccc(-n2nc(C(C)(C)C)cc2NC(=O)Nc2ccc(OCCN3CCOCC3)c3ccccc23)cc1 [doramapimod]
Outline: as §1

ispinesib = compound: Cc1ccc(C(=O)N(CCCN)[C@@H](c2nc3cc(Cl)ccc3c(=O)n2Cc2ccccc2)C(C)C)cc1 [ispinesib]
Outline: as §1

bafetinib = compound: Cc1ccc(NC(=O)c2ccc(CN3CC[C@H](N(C)C)C3)c(C(F)(F)F)c2)cc1Nc1nccc(-c2cncnc2)n1 [bafetinib]
Outline: as §1

[5] = compound: Cc1cccc(CC(=O)N2CCc3c2ccc(-c2cn(C)c4ncnc(N)c24)c3F)n1
Outline: as §1

nilotinib = compound: Cc1cn(-c2cc(NC(=O)c3ccc(C)c(Nc4nccc(-c5cccnc5)n4)c3)cc(C(F)(F)F)c2)cn1 [nilotinib]
Outline: as §1

[6] = compound: Cc1nc(Nc2n[nH]c3c2CN(C(=O)N[C@H](CN(C)C)c2ccccc2)C3(C)C)c2sccc2n1
Outline: as §1

dasatinib = compound: Cc1nc(Nc2ncc(C(=O)Nc3c(C)cccc3Cl)s2)cc(N2CCN(CCO)CC2)n1 [dasatinib]
Outline: as §1

[7] = compound: Cc1ncc(-c2ccnc(Nc3ccc(S(C)(=O)=O)cc3)n2)n1C(C)C
Outline: as §1

[8] = compound: Cn1cc(-c2ccc3c(c2)CCN3C(=O)Cc2cccc(C(F)(F)F)c2)c2c(N)ncnc21
Outline: as §1

[9] = compound: Cn1cc(-c2ccc3nnc(C(F)(F)c4ccc5ncccc5c4)n3n2)cn1
Outline: as §1

tipifarnib = compound: Cn1cncc1[C@@](N)(c1ccc(Cl)cc1)c1ccc2c(c1)c(-c1cccc(Cl)c1)cc(=O)n2C [tipifarnib]
Outline: as §1

mubritinib = compound: FC(F)(F)c1ccc(/C=C/c2nc(COc3ccc(CCCCn4ccnn4)cc3)co2)cc1 [mubritinib]
Outline: as §1

tozasertib = compound: Cc1cc(Nc2cc(N3CCN(C)CC3)nc(Sc3ccc(NC(=O)C4CC4)cc3)n2)n[nH]1 [tozasertib]
Outline: as §1

duvelisib = compound: C[C@H](Nc1ncnc2nc[nH]c12)c1cc2cccc(Cl)c2c(=O)n1-c1ccccc1 [duvelisib]
Outline: as §1

Row | Target | log2 fold change [1] | log2 fold change (crizotinib) | log2 fold change [2] | log2 fold change [3] | log2 fold change (gandotinib) | log2 fold change [4] | log2 fold change (doramapimod) | log2 fold change (ispinesib) | log2 fold change (bafetinib) | log2 fold change [5] | log2 fold change (nilotinib) | log2 fold change [6] | log2 fold change (dasatinib) | log2 fold change [7] | log2 fold change [8] | log2 fold change [9] | log2 fold change (tipifarnib) | log2 fold change (mubritinib) | log2 fold change (tozasertib) | log2 fold change (duvelisib)
1 | CDKN2AIP (UniProt Q9NXV6) | inactive: -0.053 | inactive: 0.01 | inactive: -0.132 | inactive: -0.004 | inactive: -0.012 | inactive: 0.021 | inactive: -0.019 | inactive: 0.048 | inactive: 0.034 | inactive: 0.021 | inactive: -0.021 | inactive: 0.034 | inactive: -0.041 | inactive: 0.015 | inactive: -0.049 | inactive: -0.012 | inactive: 0.046 | inactive: -0.011 |  | 
2 | CFAP36 isoform 2 (UniProt Q96G28) | inactive: -0.013 | inactive: -0.201 | inactive: 0.078 | active: -0.394 | inactive: -0.048 | inactive: -0.007 | inactive: 0.096 | inactive: -0.053 | inactive: 0.022 | inactive: -0.055 |  |  | inactive: 0.014 |  | inactive: -0.047 | inactive: 0.128 | inactive: 0.002 | inactive: 0 | active: 0.587 | 
3 | CDK13 (UniProt Q14004) | inactive: -0.075 | inactive: -0.124 | inactive: -0.036 | inactive: 0.095 | active: -0.414 | inactive: 0.141 | inactive: -0.006 | inactive: 0.063 | inactive: 0.092 | inactive: -0.018 | inactive: -0.024 | inactive: -0.149 | inactive: -0.089 | inactive: -0.108 | inactive: -0.028 | inactive: -0.098 | inactive: 0.069 | inactive: 0.023 |  | 
4 | CHMP4C (UniProt Q96CF2) | inactive: -0.044 | inactive: -0.007 | inactive: -0.256 | inactive: -0.003 | inactive: 0.073 | inactive: 0.03 | inactive: -0.046 | inactive: -0.079 | inactive: -0.01 | inactive: -0.003 | inactive: -0.03 | inactive: -0.021 | inactive: -0.027 | inactive: 0 | inactive: -0.008 | inactive: 0.041 | inactive: -0.015 | inactive: 0.039 |  | 
5 | CHAMP1 (UniProt Q96JM3) | inactive: 0.02 | inactive: -0.154 | inactive: 0.074 | inactive: -0.071 | inactive: -0.046 | inactive: -0.049 | inactive: -0.003 | inactive: -0.185 | inactive: -0.134 | inactive: 0.049 | inactive: 0 | inactive: -0.132 | inactive: -0.092 | inactive: -0.123 | inactive: 0.026 | inactive: 0.067 | inactive: 0.014 | inactive: 0.056 |  | 
6 | CEP135 (UniProt Q66GS9) | inactive: 0.182 | inactive: 0.019 | inactive: 0.011 | inactive: -0.074 | inactive: 0.279 | inactive: 0.042 | inactive: 0.09 |  | inactive: -0.199 | inactive: 0.037 |  |  | inactive: -0.11 |  | inactive: 0.202 |  |  |  |  | inactive: -0.052
7 | CHD3 isoform 3 (UniProt Q12873) | inactive: -0.036 | inactive: -0.128 | inactive: 0.068 | inactive: 0.079 | inactive: 0.237 | inactive: 0.14 | inactive: 0.026 | inactive: -0.193 | inactive: 0.01 | inactive: 0.004 | inactive: -0.093 | inactive: -0.274 | inactive: -0.086 | inactive: -0.172 | inactive: -0.06 | inactive: 0.063 | inactive: -0.089 | inactive: -0.058 |  | 
8 | CETN2 (UniProt P41208) | inactive: 0.011 | inactive: 0.103 | inactive: 0.066 | inactive: 0.003 | inactive: 0.041 | inactive: -0.135 | inactive: 0.017 | inactive: 0.084 | inactive: -0.029 | inactive: -0.131 | inactive: 0.071 | inactive: -0.055 | inactive: 0.081 | inactive: -0.001 | inactive: -0.013 | inactive: 0.03 | inactive: 0.216 | inactive: 0.036 |  | 
9 | CENPH (UniProt Q9H3R5) | inactive: 0.023 | inactive: -0.142 | inactive: 0.027 | inactive: 0.315 |  | inactive: 0.09 | inactive: 0.003 | inactive: -0.226 | inactive: -0.03 |  | inactive: 0.001 | inactive: 0.014 | inactive: -0.337 | inactive: 0.029 | inactive: -0.065 | inactive: -0.089 | inactive: -0.096 | inactive: -0.046 | inactive: 0.106 | inactive: 0.173
10 | CHAF1A (UniProt Q13111) | inactive: -0.015 | inactive: 0.058 | inactive: -0.058 | inactive: 0.15 | inactive: -0.035 | inactive: -0.04 | inactive: 0.025 | inactive: -0.098 | inactive: -0.154 | inactive: -0.04 | inactive: 0.053 | inactive: 0.047 | inactive: 0.016 | inactive: -0.074 | inactive: 0.006 | inactive: 0.002 | inactive: 0.015 | inactive: 0.034 |  | 
11 | CEP192 (UniProt Q8TEP8) | inactive: 0.055 | inactive: 0.09 | inactive: -0.038 | inactive: 0.216 | inactive: 0.016 | inactive: -0.043 | inactive: -0.092 |  | inactive: -0.182 | inactive: 0.037 | inactive: -0.16 | inactive: 0.045 | inactive: 0.03 | inactive: -0.138 | inactive: -0.014 |  | inactive: -0.199 | inactive: 0.101 | inactive: -0.143 | inactive: 0.123
12 | CDK1 (UniProt P06493) | inactive: 0.005 | inactive: -0.128 | inactive: -0.005 | inactive: -0.019 | inactive: -0.171 | inactive: 0 | inactive: -0.031 | inactive: 0.033 | inactive: 0.002 | inactive: -0.022 | inactive: 0.022 | inactive: -0.196 | inactive: -0.092 | inactive: -0.199 | inactive: -0.067 | inactive: -0.023 | inactive: -0.019 | inactive: 0.083 |  | 
13 | CHM (UniProt P24386) | inactive: -0.119 | inactive: 0.033 | inactive: -0.002 | inactive: -0.047 | inactive: -0.091 | inactive: 0.055 | inactive: 0.03 | inactive: 0.078 |  | inactive: -0.011 |  |  | inactive: -0.139 |  | inactive: -0.019 | inactive: 0.025 | inactive: 0.078 | inactive: 0.021 | inactive: -0.001 | inactive: 0.063
14 | CEP97 isoform 2 (UniProt Q8IW35) | inactive: 0.051 | inactive: -0.171 | inactive: 0.021 | inactive: 0.296 |  | inactive: -0.04 | inactive: 0.097 | inactive: -0.056 |  |  | inactive: 0.119 | inactive: -0.044 | inactive: -0.099 | inactive: 0.049 | inactive: 0.057 | inactive: -0.094 | inactive: 0.056 |  | inactive: 0.098 | inactive: -0.205
15 | CDK9 isoform 2 (UniProt P50750) | inactive: -0.017 | inactive: -0.103 | inactive: -0.075 | inactive: 0.189 | inactive: -0.054 | inactive: 0.03 | inactive: 0.066 | inactive: -0.013 | inactive: 0.039 | inactive: 0.108 | inactive: -0.045 | inactive: -0.059 | inactive: -0.011 | inactive: 0.22 | inactive: -0.091 | inactive: -0.013 | inactive: 0.068 | inactive: -0.067 |  | 
16 | CHAC2 (UniProt Q8WUX2) | inactive: 0.026 | inactive: 0.048 | inactive: 0.021 | inactive: -0.071 | inactive: -0.014 | inactive: 0.008 | inactive: -0.021 | inactive: 0.071 | inactive: -0.052 | inactive: -0.003 | inactive: 0.078 | inactive: -0.153 | inactive: 0.012 | inactive: 0.012 | inactive: -0.004 | inactive: -0.006 | inactive: -0.037 | inactive: 0.045 |  | 
17 | CDC42BPA isoform 6 (UniProt Q5VT25) | inactive: 0.03 | active: -0.477 | inactive: -0.016 | active: -0.596 | inactive: -0.148 | inactive: 0.002 | inactive: 0.071 | inactive: -0.049 | inactive: 0.051 | inactive: 0.102 | inactive: 0.28 | active: -0.682 | inactive: -0.254 | inactive: 0.135 | inactive: 0.036 | inactive: 0.008 | inactive: -0.185 | inactive: 0.037 |  | 
18 | CHEK1 (UniProt O14757) | inactive: 0.011 | inactive: -0.116 | inactive: 0.044 | inactive: 0.049 | inactive: -0.122 | inactive: 0.008 | inactive: -0.009 | inactive: 0.039 | inactive: -0.053 | inactive: 0.02 | inactive: -0.05 | active: -1.17 | inactive: -0.064 | inactive: 0.002 | inactive: 0.021 | inactive: -0.022 | inactive: 0.005 | inactive: 0.048 |  | 

Pulled one by one from the list above:
Row | Target | log2 fold change [1] | log2 fold change (crizotinib) | log2 fold change [2] | log2 fold change [3] | log2 fold change (gandotinib) | log2 fold change [4] | log2 fold change (doramapimod) | log2 fold change (ispinesib) | log2 fold change (bafetinib) | log2 fold change [5] | log2 fold change (nilotinib) | log2 fold change [6] | log2 fold change (dasatinib) | log2 fold change [7] | log2 fold change [8] | log2 fold change [9] | log2 fold change (tipifarnib) | log2 fold change (mubritinib) | log2 fold change (tozasertib) | log2 fold change (duvelisib)
5 | CHAMP1 (UniProt Q96JM3) | inactive: 0.02 | inactive: -0.154 | inactive: 0.074 | inactive: -0.071 | inactive: -0.046 | inactive: -0.049 | inactive: -0.003 | inactive: -0.185 | inactive: -0.134 | inactive: 0.049 | inactive: 0 | inactive: -0.132 | inactive: -0.092 | inactive: -0.123 | inactive: 0.026 | inactive: 0.067 | inactive: 0.014 | inactive: 0.056 |  | 
13 | CHM (UniProt P24386) | inactive: -0.119 | inactive: 0.033 | inactive: -0.002 | inactive: -0.047 | inactive: -0.091 | inactive: 0.055 | inactive: 0.03 | inactive: 0.078 |  | inactive: -0.011 |  |  | inactive: -0.139 |  | inactive: -0.019 | inactive: 0.025 | inactive: 0.078 | inactive: 0.021 | inactive: -0.001 | inactive: 0.063
